{
  "sequences": {"note": "The chains behind the UniProt entries cited, without tags or fusion partners. Where a name states a change or a piece, a line headed by the entry shows the natural chain unless it says otherwise.", "UniProt P15924": "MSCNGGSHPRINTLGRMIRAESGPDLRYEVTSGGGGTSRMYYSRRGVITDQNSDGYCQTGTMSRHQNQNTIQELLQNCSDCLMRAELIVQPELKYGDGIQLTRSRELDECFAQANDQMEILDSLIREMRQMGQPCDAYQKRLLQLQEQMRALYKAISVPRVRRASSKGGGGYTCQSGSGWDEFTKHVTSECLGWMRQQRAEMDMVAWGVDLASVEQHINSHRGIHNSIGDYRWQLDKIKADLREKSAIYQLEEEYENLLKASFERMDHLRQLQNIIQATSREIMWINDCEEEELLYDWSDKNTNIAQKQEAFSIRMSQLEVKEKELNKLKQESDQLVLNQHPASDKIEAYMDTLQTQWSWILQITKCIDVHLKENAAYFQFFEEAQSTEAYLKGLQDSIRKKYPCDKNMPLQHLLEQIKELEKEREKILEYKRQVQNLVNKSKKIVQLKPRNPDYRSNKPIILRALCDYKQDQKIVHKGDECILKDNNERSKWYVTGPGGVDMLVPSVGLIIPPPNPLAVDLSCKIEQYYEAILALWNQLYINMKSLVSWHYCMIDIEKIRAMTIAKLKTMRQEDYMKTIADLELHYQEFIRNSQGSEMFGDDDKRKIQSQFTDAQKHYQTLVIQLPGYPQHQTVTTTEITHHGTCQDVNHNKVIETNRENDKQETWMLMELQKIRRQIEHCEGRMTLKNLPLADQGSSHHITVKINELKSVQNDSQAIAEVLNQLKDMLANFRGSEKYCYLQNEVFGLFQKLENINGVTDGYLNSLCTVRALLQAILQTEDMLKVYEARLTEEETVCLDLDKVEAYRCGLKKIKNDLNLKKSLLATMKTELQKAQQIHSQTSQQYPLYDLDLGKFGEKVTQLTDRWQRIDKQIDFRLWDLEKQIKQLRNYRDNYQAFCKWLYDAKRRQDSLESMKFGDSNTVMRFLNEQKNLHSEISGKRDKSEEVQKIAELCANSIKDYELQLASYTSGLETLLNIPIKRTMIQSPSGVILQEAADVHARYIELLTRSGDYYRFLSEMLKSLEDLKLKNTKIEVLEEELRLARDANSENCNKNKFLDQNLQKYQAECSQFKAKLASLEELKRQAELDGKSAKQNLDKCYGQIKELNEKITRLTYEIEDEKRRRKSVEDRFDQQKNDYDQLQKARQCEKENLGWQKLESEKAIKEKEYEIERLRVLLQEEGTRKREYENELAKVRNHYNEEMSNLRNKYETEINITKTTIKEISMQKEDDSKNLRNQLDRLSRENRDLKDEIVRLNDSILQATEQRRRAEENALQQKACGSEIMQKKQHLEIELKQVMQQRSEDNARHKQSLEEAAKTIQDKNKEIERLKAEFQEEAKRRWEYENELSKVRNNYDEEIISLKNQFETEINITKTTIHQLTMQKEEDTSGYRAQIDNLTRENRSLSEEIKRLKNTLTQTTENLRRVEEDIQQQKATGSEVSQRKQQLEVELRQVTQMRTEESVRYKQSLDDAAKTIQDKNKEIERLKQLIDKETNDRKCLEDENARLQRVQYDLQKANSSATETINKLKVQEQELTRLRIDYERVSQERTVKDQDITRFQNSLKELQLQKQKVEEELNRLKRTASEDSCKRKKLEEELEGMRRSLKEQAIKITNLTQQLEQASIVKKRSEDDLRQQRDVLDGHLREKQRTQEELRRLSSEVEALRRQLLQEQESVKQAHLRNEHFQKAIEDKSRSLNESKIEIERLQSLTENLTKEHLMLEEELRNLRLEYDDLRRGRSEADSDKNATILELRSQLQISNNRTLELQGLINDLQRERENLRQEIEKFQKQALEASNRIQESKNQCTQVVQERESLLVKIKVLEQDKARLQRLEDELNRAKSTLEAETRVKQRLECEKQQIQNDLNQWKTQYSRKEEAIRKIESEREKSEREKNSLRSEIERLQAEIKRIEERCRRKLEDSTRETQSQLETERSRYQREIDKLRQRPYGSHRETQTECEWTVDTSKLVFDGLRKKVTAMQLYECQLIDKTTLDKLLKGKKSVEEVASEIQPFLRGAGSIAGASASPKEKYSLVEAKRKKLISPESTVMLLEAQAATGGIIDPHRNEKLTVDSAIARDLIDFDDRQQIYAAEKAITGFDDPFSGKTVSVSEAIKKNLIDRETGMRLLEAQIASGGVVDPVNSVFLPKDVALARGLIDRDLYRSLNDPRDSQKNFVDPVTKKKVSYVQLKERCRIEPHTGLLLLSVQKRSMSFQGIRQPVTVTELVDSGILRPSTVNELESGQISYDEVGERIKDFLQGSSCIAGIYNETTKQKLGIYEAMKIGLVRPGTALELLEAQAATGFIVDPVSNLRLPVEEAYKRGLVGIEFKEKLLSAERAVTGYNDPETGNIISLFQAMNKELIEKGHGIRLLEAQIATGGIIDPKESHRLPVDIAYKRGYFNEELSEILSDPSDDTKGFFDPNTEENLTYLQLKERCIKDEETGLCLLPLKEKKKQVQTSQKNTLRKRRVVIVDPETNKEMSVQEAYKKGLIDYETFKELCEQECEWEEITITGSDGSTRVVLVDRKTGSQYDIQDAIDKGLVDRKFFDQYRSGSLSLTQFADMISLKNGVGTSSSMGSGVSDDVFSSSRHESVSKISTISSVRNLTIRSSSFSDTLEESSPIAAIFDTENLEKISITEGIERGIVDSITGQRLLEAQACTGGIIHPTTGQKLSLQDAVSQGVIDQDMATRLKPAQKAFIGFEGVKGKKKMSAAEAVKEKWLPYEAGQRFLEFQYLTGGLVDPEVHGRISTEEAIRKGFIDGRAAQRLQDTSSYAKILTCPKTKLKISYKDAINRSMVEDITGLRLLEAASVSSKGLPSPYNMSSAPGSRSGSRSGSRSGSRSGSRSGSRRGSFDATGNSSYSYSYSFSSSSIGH", "UniProt Q6RYW5": "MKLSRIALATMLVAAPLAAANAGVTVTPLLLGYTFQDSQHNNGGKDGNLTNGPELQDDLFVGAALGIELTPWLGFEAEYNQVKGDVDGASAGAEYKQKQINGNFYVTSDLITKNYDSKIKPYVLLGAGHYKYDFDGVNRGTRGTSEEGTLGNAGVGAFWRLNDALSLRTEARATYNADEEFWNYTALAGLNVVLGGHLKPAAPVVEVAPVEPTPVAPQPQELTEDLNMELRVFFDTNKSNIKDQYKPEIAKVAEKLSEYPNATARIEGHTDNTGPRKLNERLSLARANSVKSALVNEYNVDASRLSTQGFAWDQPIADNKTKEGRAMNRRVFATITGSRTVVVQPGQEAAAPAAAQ"},
  "source": "patent US20140349871A1",
  "target": "desmoplakin (human) (UniProt P15924)",
  "experiment": "PIR cross-linking and ReACT of A. baumannii cells incubated with human bronchial epithelial cells",
  "note": "Results are given in words; binding and its absence hold for the method and conditions named. Some binding calls cover weakened binding; strength is not graded here.",
  "data": [
    {"substance": "OmpA (from UniProt Q6RYW5 20-356)", "values": [
      {"measurement": "binding", "result": "binds"}
    ]}
  ]
}
